In patent US12455279B2, “Personalized immunotherapy for rejuvenating activating and strengthening exhausted and dysfunctional T cells, reducing PD-1, and improving immune function” (priority 2018, dated 2025):
At least one structure is not confirmed: it was looked up by name or label, or the drawing left a doubt.

Assays:
[1] = tested on: PD-1 expressing large proliferating CD3+ normal human T cells; experiment: PD-1 expression on large proliferating T cells (FSC/SSC gating), 1 Hr treatment; type: cell-based; conditions: 10^−8M
Protocol: (§1) Peripheral blood lymphocytes (PBLs) were separated from normal human leukocytes of healthy donors by Ficol separation and CD3 positive T cells were separated by anti-CD3 antibody-coupled magnetic beads. The CD3+ T cells were cultured in RPMI 1640 medium supplemented with 10% heat inactivated fetal calf serum (FCS), 1% L-Glutamine, 1% sodium pyruvate, 1% non-essential amino acids, and 1% antibiotics. The cells were usually maintained for, for on average 24 hours after their separation before various molecules were added and their effects on the T cells were measured. […] It was therefore tested if neurotransmitters, neuropeptides, and/or modulators of voltage-gated ion channels can reduce PD-1 on the cell surface of T cells. Such a reduction would allow the T cells to escape the tumor-induced T cell suppression, and the activated T cells could then attach the cancer cells. As such, the expression of PD-1 on the surface of these treated and untreated T cells was monitored. […] Shorter in vitro incubation times are frequently preferable when cells are going to subsequently be returned to a subject, as they end to decrease the risk of an adverse reaction.
(§2) CD3 positive T cells of patients are a heterogenous mix of different types of T cells. […]

[2] = tested on: PD-1 expressing smaller non-proliferating CD3+ normal human T cells; experiment: PD-1 expression on smaller non-proliferating T cells (FSC/SSC gating), 1 Hr treatment; type: cell-based; conditions: 10−8M
Protocol: as §1, §2

**Q.** With `C[C@H](N)C(=O)NCC(=O)N[C@H]1CSSC[C@@H](C(=O)O)NC(=O)[C@H](CO)NC(=O)[C@H]([C@@H](C)O)NC(=O)[C@H](Cc2ccccc2)NC(=O)[C@H]([C@@H](C)O)NC(=O)[C@H](CCCCN)NC(=O)[C@H](Cc2c[nH]c3ccccc23)NC(=O)[C@H](Cc2ccccc2)NC(=O)[C@H](Cc2ccccc2)NC(=O)[C@H](CC(N)=O)NC(=O)[C@H](CCCCN)NC1=O` [Somatostatin] as the molecule, how does the “% of large T cells expressing PD-1” value [1] read?
**A.** Its value is 12.6%.

**Q.** What about the “% reduction in % of large T cells expressing PD-1” value ([1]; vs untreated) of the same molecule?
**A.** The value was 41.4%.

**Q.** What about the “% of smaller T cells expressing PD-1” value [2] of the same molecule?
**A.** Its value is 33.9%.

**Q.** What about the “% reduction in % of smaller T cells expressing PD-1” value ([2]; vs untreated) of the same molecule?
**A.** Its value is 22.8%.
